{"sequences": {"note": "By UniProt entry, the sequences of proteins in these tests, tags left out. Residues count along the entry.", "UniProt P01375, residues 77-233": "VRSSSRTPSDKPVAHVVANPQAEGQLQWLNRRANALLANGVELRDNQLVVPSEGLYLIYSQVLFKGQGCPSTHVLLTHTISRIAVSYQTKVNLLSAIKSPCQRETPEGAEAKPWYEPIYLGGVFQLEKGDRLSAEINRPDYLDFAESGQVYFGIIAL"}, "source": "patent US20140193400A1", "about": "(ESBATECH AN ALCON BIOMEDICAL RESEARCH UNIT, published 2014)", "molecular_target": "recombinant human TNFalpha (human, UniProt P01375 77-233)", "assay": "secretion ELISA on TNFα, bacterial culture supernatant not normalised for single-chain antibody content", "note": "No constants are given. Whether binding was seen depends on the method and setting. Some entries that bind do so weakly or less than the wild type."}
{"binder": "EP19_max (scFv, also called 1007; EP19maxmod) scFv: EIVMTQSPSTLSASVGDRVIITCQASDNIYRGLAWYQQKPGKAPKLLIYDASTLQSGVPSRFSGSGSGTQFTLTISSLQPDDFATYYCLGVYGYSSDDGAAFGQGTKLTVLGGGGGSGGGGSGGGGSGGGGSEVQLVESGGGLVQPGGSLRLSCTVSGFSLNSNEISWVRQAPGKGLEWVGYIGNGGMTHYASWAKGRFTISRDTSKNTVYLQMNSLRAEDTAVYYCASSVEYTDLYYLNIWGQGTLVTVSS", "values": [{"measurement": "binding", "result": "binds"}]}
